Results taken from article PMC7527721, “Beyond Toxin Transport: Novel Role of ABC Transporter for Enzymatic Machinery of Cereulide NRPS Assembly Line” (mBio, 2020).
No constants are given. Whether binding was seen depends on the method and setting. Some entries that bind do so weakly or less than the wild type. For some of these results: Sequences can lack the tags named with a protein.

Tests used:
[1] = biological target: T1, CesD, transmembrane protein of the ABC transporter CesCD (BACTH fusion) (Bacillus cereus F4810/72) (UniProt Q20CI6); assay: two-hybrid; BACTH (T18/T25 adenylate cyclase fusions) in E. coli BTH101, colonies on LB X-Gal/IPTG agar; 24 h at 30°C, 20 h at RT, 20 h at 18°C
T1 sequence: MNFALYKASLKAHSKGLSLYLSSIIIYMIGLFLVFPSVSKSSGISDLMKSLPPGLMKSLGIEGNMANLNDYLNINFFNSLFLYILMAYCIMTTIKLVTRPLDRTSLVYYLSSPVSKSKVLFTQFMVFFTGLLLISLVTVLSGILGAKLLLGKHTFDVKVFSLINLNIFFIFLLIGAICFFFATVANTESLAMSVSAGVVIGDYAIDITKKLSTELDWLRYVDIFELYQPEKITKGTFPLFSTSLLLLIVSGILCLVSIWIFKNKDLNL

[2] = biological target: BerB, membrane protein of the ABC transporter BerAB of B. thuringiensis (BACTH fusion) (B. thuringiensis) (UniProt Q8RME0); assay: as above
[3] = biological target: T1, CesD, transmembrane protein of the ABC transporter CesCD (BACTH fusion) (Bacillus cereus F4810/72); assay: two-hybrid; BACTH in E. coli BTH101, β-galactosidase activity (Miller assay, ONPG, 28°C) of cells from LB-IPTG plates, normalized to the negative control (T18 and T25 alone)
[4] = biological target: BerB, membrane protein of the ABC transporter BerAB of B. thuringiensis (BACTH fusion) (B. thuringiensis) (UniProt Q8RME0); assay: as above
[5] = biological target: CesC, ATPase of the ABC transporter CesCD (BACTH fusion) (Bacillus cereus F4810/72) (UniProt Q20CI7); assay: as above
[6] = biological target: BerB, membrane protein of the ABC transporter BerAB of B. thuringiensis (BACTH fusion) (B. thuringiensis) (UniProt Q8RME0); assay: as above; remark: listed apart in the source
[7] = biological target: CesC, ATPase of the ABC transporter CesCD (BACTH fusion) (Bacillus cereus F4810/72) (UniProt Q20CI7); assay: two-hybrid; BACTH (T18/T25 adenylate cyclase fusions) in E. coli BTH101, colonies on LB X-Gal/IPTG agar; 24 h at 30°C, 20 h at RT, 20 h at 18°C
[8] = biological target: T1, CesD, transmembrane protein of the ABC transporter CesCD (BACTH fusion) (Bacillus cereus F4810/72); assay: as above; remark: listed apart in the source
[9] = biological target: BerB, membrane protein of the ABC transporter BerAB of B. thuringiensis (BACTH fusion) (B. thuringiensis) (UniProt Q8RME0); assay: as above; remark: listed apart in the source
[10] = biological target: MinD from B. subtilis (BACTH fusion) (B. subtilis) (UniProt Q01464); assay: as above

Measured: binding

BerA, ATPase of the ABC transporter BerAB of B. thuringiensis (BACTH fusion) (from UniProt Q8RME1 1-297)
binds: [1] | [2] | [3] | [4]

B1: CesC, ATPase of the ABC transporter CesCD (BACTH fusion) (natural protein)
chain: MIKIEGLTKEFGNGKGIFDVTFEVKQGEVFGFLGPNGAGKSTTIRHLMGFIKPSKGAATINGFDCWKEADQVKKRVGYLPGEIAFPEEMTAYDFIRLIAGMKGMSDLGRAEEFIEKFQLDMRVHIKKMSKGMKQKLAIVAAFLHDPDILILDEPSTGLDPLMQNILVDFILEEKKCGKTILISSHIFDEIKDTADTICIIKNGKIVESGDLKTLKSAQKRYLKAYFTQEVDVELLQRSNLQIEKVENLVATILIQQNINEIMRELMKYDLINVEIMEPEIKDIFIKHYENR
notes: also called T18-CesC; CesC-T18; source: bacterial two-hybrid (BACTH) fusion, E. coli BTH101; not shown: T18 or T25 fragment of B. pertussis adenylate cyclase (several combinations tested), N-terminal or C-terminal, kept
binds: [5] | [6] | [7] | [8] | [9]

B2: MinD from B. subtilis (BACTH fusion) (protein, UniProt Q01464 1-268)
chain: MGEAIVITSGKGGVGKTTTSANLGTALAILGKRVCLVDTDIGLRNLDVVMGLENRIIYDLVDVVEGRCKMHQALVKDKRFDDLLYLMPAAQTSDKTAVAPEQIKNMVQELKQEFDYVIIDCPAGIEQGYKNAVSGADKAIVVTTPEISAVRDADRIIGLLEQEENIEPPRLVVNRIRNHLMKNGDTMDIDEIVQHLSIDLLGIVADDDEVIKASNHGEPIAMDPKNRASIAYRNIARRILGESVPLQVLEEQNKGMMAKIKSFFGVRS
binds: [10]
